PubChem BioAssay AID1259424, University of Nebraska Medical Center, 2018
Screen: 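Find knockdowns that reproduce the expression shifts seen after KSR1 loss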 (primary screen). Cells: human HCT116 colon cancer cells. Knock-down reagent: siRNA pool against human genes, 50 nM. Measurement: 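Log2 levels of six mRNAs (branched-DNA multiplex), adjusted by two reference genes and the non-targeting median, then scored against the average KSR1 knockdown pattern as Pearson r and euclidean distance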. Direction: mean correlation with KSR1 profile: higher = expression change more like KSR1 knockdown.
Here is an unselected part of about 14,000 deposited reagents. 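Higher correlation or smaller distance means closer resemblance to KSR1 loss; control wells, including KSR1 knockdowns, recur on many plates.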 Not all columns of the deposit are shown. The record does not give: the time to read-out.

After knock-down of RPS6KA6 (ribosomal protein S6 kinase A6), the record shows mean correlation with KSR1 profile -0.12.
CLXN (calaxin) gave mean correlation with KSR1 profile 0.824.
Against SPANXC (SPANX family member C) the deposit lists mean correlation with KSR1 profile -0.198.
Depletion of DIAPH2 (diaphanous related formin 2) gave: mean correlation with KSR1 profile -0.251.
ALKBH6 (alkB homolog 6, nucleotide demethylase) showed mean correlation with KSR1 profile 0.538.
For LIMD1 (LIM domain containing 1) the deposit lists mean correlation with KSR1 profile 0.432.
After knock-down of KCNJ1 (potassium inwardly rectifying channel subfamily J member 1), the screen gave mean correlation with KSR1 profile -0.375.
STC2 (stanniocalcin 2) showed mean correlation with KSR1 profile 0.323.
After knock-down of MCM3 (minichromosome maintenance complex component 3), the screen gave mean correlation with KSR1 profile 0.204.
For RPH3AL (rabphilin 3A like (without C2 domains)) the deposit lists mean correlation with KSR1 profile -0.263.

Copied from the list:
Under “mean correlation with KSR1 profile”, SPANXC (SPANX family member C) reads -0.198
KCNJ1 (potassium inwardly rectifying channel subfamily J member 1), mean correlation with KSR1 profile = -0.375

The listing continues.
Silencing of PFDN1 (prefoldin subunit 1) came out at: mean correlation with KSR1 profile 0.373.
SYNJ2BP (synaptojanin 2 binding protein) showed mean correlation with KSR1 profile -0.0583.
For SNX2 (sorting nexin 2) the deposit lists mean correlation with KSR1 profile 0.774.
For MTMR1 (myotubularin related protein 1), the entry reads mean correlation with KSR1 profile 0.327.
Against ZXDC (ZXD family zinc finger C), the entry reads mean correlation with KSR1 profile 0.737.
Against STIM1 (stromal interaction molecule 1), the values are mean correlation with KSR1 profile -0.251.
Against KRT3 (keratin 3), the values are mean correlation with KSR1 profile -0.198.
After knock-down of CFHR3 (complement factor H related 3), the screen gave mean correlation with KSR1 profile -0.511.
For CAMK1 (calcium/calmodulin dependent protein kinase I), the values are mean correlation with KSR1 profile -0.514.
